Measurements reported in PubChem BioAssay AID1259425 (University of Nebraska Medical Center, 2018).

- Aim: 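Compare each knockdown with KSR1 silencing using changes in marker transcripts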 (primary screen)
- Cell system: HCT116 human colon cancer cells
- Reagents: siRNA pool against human genes, 50 nM siRNA
- Measurement: 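mRNA of six signature genes measured together by branched-DNA assay after 50 nM siRNA pool, blank removed, divided by geometric mean of two housekeeping genes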
- Reading the numbers: BNIP3L mRNA: higher = more BNIP3L transcript after knockdown
The deposit covers about 14,000 reagents; shown is a part drawn at random. Further read-outs or replicates are left out here. Not stated in the record: the time to read-out.

HSP90AA2P: BNIP3L mRNA, set 1 = 0.0743
KLC3: BNIP3L mRNA, set 1 = 0.115
MAT2B: BNIP3L mRNA, set 1 = 0.219
NAALADL1: BNIP3L mRNA, set 1 = 0.32
ERP44: BNIP3L mRNA, set 1 = 0.0633
CILP: BNIP3L mRNA, set 1 = 0.19
NXPH2: BNIP3L mRNA, set 1 = 0.208
PUM3: BNIP3L mRNA, set 1 = 0.109
INSAF (retired record): BNIP3L mRNA, set 1 = 0.0525
DUSP12: BNIP3L mRNA, set 1 = 0.0674
GSTA1: BNIP3L mRNA, set 1 = 0.242
FAM167B: BNIP3L mRNA, set 1 = 0.118
NDUFA6: BNIP3L mRNA, set 1 = 0.14
GAPVD1: BNIP3L mRNA, set 1 = 0.112

In a second layout: 4 of the entries above
gene knocked down | BNIP3L mRNA, set 1
DUSP12 | 0.0674
GSTA1 | 0.242
FAM167B | 0.118
NDUFA6 | 0.14

The list goes on.
ZNF319: BNIP3L mRNA, set 1 = 0.122
WDTC1: BNIP3L mRNA, set 1 = 0.145
APBA3: BNIP3L mRNA, set 1 = 0.113
SRR: BNIP3L mRNA, set 1 = 0.116
KLHL21: BNIP3L mRNA, set 1 = 0.083
SPRR2A: BNIP3L mRNA, set 1 = 0.116
DUS3L: BNIP3L mRNA, set 1 = 2.54
VAX2: BNIP3L mRNA, set 1 = 0.0809
BSN: BNIP3L mRNA, set 1 = 0.094
SLC45A3: BNIP3L mRNA, set 1 = 0.187
COG3: BNIP3L mRNA, set 1 = 0.209
APBA1: BNIP3L mRNA, set 1 = 0.156
ANKS1A: BNIP3L mRNA, set 1 = 0.103
MAP4K3: BNIP3L mRNA, set 1 = 0.12
